For assay [1], the target named is T1, small heat shock protein 23 (sHSP23) (Drosophila melanogaster (endogenous in adult fly heads)) (UniProt P02516).
T1 sequence: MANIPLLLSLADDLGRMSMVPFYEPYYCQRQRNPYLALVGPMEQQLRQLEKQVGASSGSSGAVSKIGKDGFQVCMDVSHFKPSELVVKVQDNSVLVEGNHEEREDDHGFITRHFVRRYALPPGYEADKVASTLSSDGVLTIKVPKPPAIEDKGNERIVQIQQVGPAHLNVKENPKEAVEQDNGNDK
In words: co-IP; adult fly heads (5-10) lysed in NaCl 150 mM, 0.1% Tween-20, TBS pH 7.5; Protein A/G agarose beads loaded overnight at 4°C with anti-Hsp23 or anti-Hsp26 antibody or control IgG, 1 h at 4°C with the supernatant; western blot with anti-Hsp23 and anti-Hsp26; control flies and pkm RNAi flies (interaction not modified by pkm knockdown). On the technique in general: A western blot detects proteins with antibodies after separation by electrophoresis.

The target of assay [2] is T2, small heat shock protein 26 (sHSP26) (Drosophila melanogaster (endogenous in adult fly heads)).
T2 sequence: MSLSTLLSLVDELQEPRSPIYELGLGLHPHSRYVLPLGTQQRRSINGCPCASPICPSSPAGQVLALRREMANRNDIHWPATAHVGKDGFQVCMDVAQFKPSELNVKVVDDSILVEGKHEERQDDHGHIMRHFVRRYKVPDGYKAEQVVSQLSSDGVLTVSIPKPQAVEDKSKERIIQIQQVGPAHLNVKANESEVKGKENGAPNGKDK
Described as above.

The source of these data is PMC7241713.

No constants are given. Whether binding was seen depends on the method and setting. In cells and extracts the contact can be indirect. Some results given as binding are weak or reduced against the parent protein; the word gives no strength.

B1: small heat shock protein 26 (sHSP26) (protein)
chain: T2 sequence
On to B1, for which, in assay [1], the binding result is on record as “binds”.

B2: small heat shock protein 23 (sHSP23) (protein, UniProt P02516 1-186)
chain: T1 sequence
Take B2: in assay [2], the binding result is given as “binds”.
